For at least one compound, name, drawing or mass did not settle the structure. Some results were stated once for a whole list of compounds, not compound by compound.
System: Enterobacter cloacae strain harbouring IMI-2 gene
Assay: Antibiotic susceptibility (MIC) of the IMI-2 positive clinical strain
Type: cell-based
Design: MIC: unit not given beside the values
Conditions: for MIC: IMI-2 positive Enterobacter cloacae strain isolated from a patient in intensive care unit

## C[C@@H](O)[C@H]1C(=O)N2C(C(=O)O)=C(SCCN=CN)C[C@H]12 [imipenem]
IMI-2 positive Enterobacter cloacae strain
  resistance of the strain: highly resistant
  MIC: > 32

## C[C@@H](O)[C@H]1C(=O)N2C(C(=O)O)=C(S[C@@H]3CN[C@H](C(=O)N(C)C)C3)[C@H](C)[C@H]12 [meropenem]
  MIC: > 32

— patent US9593381B2, “Method and kit for detecting carbapenemase genes” (Amplidiag OY, priority 2009, dated 2017)
